Assay results taken from paper PMC6428247, “Potent inhibitors of equine steroid isomerase EcaGST A3-3” (PLoS ONE, 2019).
Where a name gives a salt, the structure may show the parent alone.

Protein sequences, listed by entry. Tags and fused reporters are not part of them.
UniProt M9ZT87, entry or part of it: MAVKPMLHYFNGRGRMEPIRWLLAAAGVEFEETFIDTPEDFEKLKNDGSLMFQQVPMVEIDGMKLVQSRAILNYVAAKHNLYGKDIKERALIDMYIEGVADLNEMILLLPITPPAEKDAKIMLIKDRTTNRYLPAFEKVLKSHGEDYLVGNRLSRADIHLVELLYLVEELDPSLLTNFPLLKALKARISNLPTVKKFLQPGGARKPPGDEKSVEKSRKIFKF

Target: EcaGST A3-3 (Equus caballus, UniProt M9ZT87)
Assay: Inhibition of EcaGST A3-3 activity, GSH conjugation with CDNB
Type: biochemical, Equus ferus caballus
Conditions: pH 6.5, read-out: Inhibition (%) of EcaGST A3-3
Method: The final solvent concentration in the reaction system was kept at 5% (v/v) as a maximum.
The conjugation of GSH with the electrophilic substrate CDNB was used as a biochemical assay for general activity measurements. Screening of the US Drug library for inhibition was done in triplicates in 96-well plates in a Thermo Scientific Multiskan GO spectrophotometer. The conjugation activity at 30°C was monitored at 340 nm for 1 min in 0.1 M sodium phosphate buffer at pH 6.5 and 10 μM inhibitor concentration in a final volume of 300 μL. Initial concentrations of GSH and CDNB were 1 mM.
Assay conditions for inhibition measurements of enzyme activity with CDNB were the following: EcaGST A3-3 15 nM, initial concentrations of GSH and CDNB 1 mM, inhibitor concentrations varying from 0.029 μM to 15 μM, in 100 mM Na2HPO4/NaH2PO4 at pH 6.5.
The reactions were followed spectrophotometrically for 1 min at 30°C using a Shimadzu UV-2501 PC spectrophotometer (Shimadzu Inc.). All experiments included triplicate measurements in each data point.
The equation for competitive inhibition fitted by non-linear regression was v=Vmax[S]/KM(1+[I]/Ki)+[S] where [S] is the substrate concentrations and [I] is the inhibitor concentration.

Oc1ccc2c3c1O[C@H]1[C@@H](O)CC[C@@]4(O)[C@@H](C2)N(CC2CCC2)CC[C@]314 [Nalbuphine hydrochloride]
inhibition at 10 µM: 35 ± 11%
